Article PMC6967409 (Frontiers in Chemistry, 2020)
Where two headings read alike, the source gives them in different places.

Assays:
[1] = test system: Chinese hamster ovarian (CHO) cells; settings: selectivity index; ref Coertzen et al. (2018); cited from earlier work
HepG2 cells = assay: HepG2 cytotoxicity bioluminescence assay (CellTiterGlo, ATP); assay type: cell-based, human; settings: selectivity index
Description: Briefly, HepG2-CD81 cells were seeded into 1,536 well plates containing 50 nL of test and control compounds diluted into DMSO. […] Next, 2 μL of luciferin reagent (Promega BrightGlo) was added to each well and luciferase activity was detected using a Perkin Elmer Envision plate reader. […] In parallel, plates were processed without sporozoites for HepG2 toxicity measurements.
In continuation of the transmission blocking theme, it is important to establish activities against liver stage parasites. […] This assay uses ultra-high-throughput screening methods optimized for a 1536-well format and a HepG2 human hepatoma cell line. […] To establish selectivity of the compounds for the parasite in the liver stage of infection, cytotoxicity was determined by measuring bioluminescence from the reaction between free ATP of compound-treated, uninfected hepatocytes and a luciferase reporter system.

[2] = test system: P. falciparum ARC08-22 (4G); assay: T0 [3H]-hypoxanthine drug susceptibility assay, artemisinin-resistant clone (C580Y); assay type: cell-based, Plasmodium falciparum
[3] = test system: P. falciparum PL08-009 (5C); assay: as above; assay type: cell-based, Plasmodium falciparum
P. falciparum K1 [4] = test system: P. falciparum K1; set-up: method as in Coertzen et al. (2018); settings: resistance index; ref Coertzen et al. (2018); cited from earlier work
P. falciparum W2 [5] = test system: P. falciparum W2; set-up: method as in Coertzen et al. (2018); settings: resistance index; ref Coertzen et al. (2018); cited from earlier work
[6] = test system: P. falciparum NF54 late stage gametocytes (>90% stage IV and V); set-up: method as in Coertzen et al. (2018); settings: ref Coertzen et al. (2018); cited from earlier work
P. falciparum Dd2 [7] = test system: P. falciparum Dd2; set-up: method as in Coertzen et al. (2018); settings: resistance index; ref Coertzen et al. (2018); cited from earlier work
P. falciparum K1 [8] = assay: Proliferative (SYBR Green I) assay, asexual parasites, 96 h; assay type: cell-based, Plasmodium falciparum; settings: resistance index
Description: (§1) P. falciparum parasites (NF54, K1, and W2) were cultured in vitro in human erythrocytes (A^+ or O^+) under 90% N2, 5% CO2, and 5% O2 atmospheric conditions with supplemented RPMI 1640 media (Sigma Aldrich) containing Albumax II, as previously described (Verlinden et al., [2011]). This study was carried out according the guidelines set out by the Faculty of Health Sciences Ethical Committee, Ethical Clearance no. EC-120821/077. The protocol was approved by the Faculty of Health sciences ethical committee at the University of Pretoria. All subjects gave written informed consent in accordance with the Declaration of Helsinki. Parasite proliferation was monitored microscopically using Giemsa stained smears. Synchronized ring stage parasites (>95%) were obtained using a 5% D-sorbitol (Sigma Aldrich) treatment. […] Gametocyte cultures were kept stationary under 90% N2, 5% CO2, and 5% O2 atmospheric conditions at 37°C and treated with 50 mM N-acetyl-glucosamine (NAG) to eliminate residual invasion of asexual parasites.
(§2) Working solutions of the derivatives were prepared from a 10 mM stock solution in 100% DMSO in supplemented RPMI 1640 media containing Albumax II with a final DMSO concentration of <0.1%, previously determined as being non-toxic to intraerythrocytic asexual parasites and gametocytes. Dose responses were assayed using a two-fold serial drug dilution on in vitro >95% ring stage intraerythrocytic P. falciparum parasites at 37°C under 90% N2, 5% CO2, and 5% O2 atmospheric conditions, detecting both parasite lactate dehydrogenase (pLDH) activity as a metabolic marker following a 48 h drug exposure (1.5–2% parasitemia and 2% hematocrit; Makler et al., [1993]) and SYBR Green I fluorescence as proliferative marker following a 96 h drug exposure (1% parasitemia and 1% hematocrit). […] Data analysis was performed using GraphPad Prism 7.

P. falciparum W2 [9] = assay: as above; assay type: cell-based, Plasmodium falciparum; settings: resistance index
Description: as §1, §2

[10] = test system: P. falciparum NF54 late stage gametocytes (>90% stage IV and V); assay: Gametocytocidal luciferase reporter assay, late stage, 72 h; assay type: cell-based, Plasmodium falciparum
Description: as §1
Gametocytocidal activity was determined using the luciferase reporter line (Reader et al., [2015]) to derive dose responses with two-fold serial drug dilutions for 48 h against early stage gametocytes (day 5 post-induction population, >90% stage I–III) and 10-fold serial drug dilutions for 72 h against late stage gametocytes (day 10 post-induction population, >90% late stage IV–V) (2% gametocytemia, 2% hematocrit), at 37°C under 90% N2, 5% CO2, and 5% O2 atmospheric conditions.

P. falciparum Dd2 [11] = assay: Metabolic (parasite LDH) assay, asexual ring stage parasites, 48 h; assay type: cell-based, Plasmodium falciparum; settings: resistance index
Description: as §2

Row | Structure (SMILES) | SI (EC50 CHO/IC50 NF54 proliferative assay) [1] | SI (EC50 HepG2/IC50 P. berghei sporozoites) (HepG2 cells) | RI (IC50 for ARC08-22(4G)/IC50 for W2) [2] | RI (IC50 for PL08-09 (5C)/IC50 for W2) [3] | RI (IC50 K1/IC50 NF54), proliferative (P. falciparum K1 [4]) | RI (column beside W2; footnote f IC50 Dd2/IC50 NF54), proliferative (P. falciparum W2 [5]) | Fold change preference ratio: EG to LG [6] | Fold change preference ratio: LG to EG [6] | RI (IC50 Dd2/IC50 NF54), metabolic (P. falciparum Dd2 [7]) | RI (IC50 K1/IC50 NF54), proliferative (P. falciparum K1 [8]) | RI (column beside W2; footnote f IC50 Dd2/IC50 NF54), proliferative (P. falciparum W2 [9]) | Fold change preference ratio: EG to LG [10] | Fold change preference ratio: LG to EG [10] | RI (IC50 Dd2/IC50 NF54), metabolic (P. falciparum Dd2 [11]) | fold decrease in susceptibility of PL08-009 (5C) ([3]; relative to W2)
1 | C[C@H]1[C@H](N2CCSCC2)O[C@@H]2O[C@@]3(C)CC[C@H]4[C@H](C)CC[C@@H]1[C@@]24OO3 [Artemiside 7, artemiside] | >45,166 | >308 | 1.1 | 0.1 | 1.47 | 1.58 | 0.09 | 10.9 | 1.4 | – | – | – | – | – | –
2 | CC1CCC2C(C)C(Nc3ccc(F)cc3)OC3OC4(C)CCC1C32OO4 (stereo not shown) [Arylamine 12] | 371 | – | 1.2 | 3.3 | 0.48 | 2.55 | 0.4 | 2.3 | 1.41 | – | – | – | – | – | –
3 | CCN(CC)CCCC(C)Nc1ccnc2cc(Cl)ccc12 (stereo not shown) [CQ, chloroquine] | – | – | – | – | 15.4 | – | – | – | 25.1 | – | – | – | – | – | –
4 | CCCCS(=O)(=O)N1CCN([C@@H]2O[C@@H]3O[C@@]4(C)CC[C@H]5[C@H](C)CC[C@@H]([C@H]2C)[C@@]35OO4)CC1 [Compound 13] | – | – | – | – | – | – | – | – | – | 1.1 | 1.6 | 0.02 | 40.55 | – | –
5 | CC(=O)Nc1ccc(S(=O)(=O)N2CCN([C@@H]3O[C@@H]4O[C@@]5(C)CC[C@H]6[C@H](C)CC[C@@H]([C@H]3C)[C@@]46OO5)CC2)cc1 [Compound 15] | – | – | – | – | – | – | – | – | – | 1.3 | 2.0 | 0.11 | 8.78 | 1.8 | –
6 | C[C@H]1[C@H](N2CCN(S(=O)(=O)c3cccc(C(F)(F)F)c3)CC2)O[C@@H]2O[C@@]3(C)CC[C@H]4[C@H](C)CC[C@@H]1[C@@]24OO3 [Compound 16] | – | – | – | – | – | – | – | – | – | 1.5 | 1.4 | 0.02 | 46.26 | 5.7 | –
7 | C[C@H]1[C@H](N2CCN(S(=O)(=O)c3cccc(F)c3)CC2)O[C@@H]2O[C@@]3(C)CC[C@H]4[C@H](C)CC[C@@H]1[C@@]24OO3 [Compound 17] | – | – | – | – | – | – | – | – | – | 1.6 | 1.5 | 0.05 | 20.98 | 3.1 | –
8 | C[C@H]1[C@H](N2CCN(S(=O)(=O)c3ccc(C(F)(F)F)cc3)CC2)O[C@@H]2O[C@@]3(C)CC[C@H]4[C@H](C)CC[C@@H]1[C@@]24OO3 [Compound 18] | – | – | – | – | – | – | – | – | – | 1.6 | 1.7 | 0.05 | 18.60 | 4.9 | –
9 | C[C@H]1[C@H](N2CCN(S(=O)(=O)c3ccc(F)cc3)CC2)O[C@@H]2O[C@@]3(C)CC[C@H]4[C@H](C)CC[C@@H]1[C@@]24OO3 [Compound 19] | – | – | – | – | – | – | – | – | – | 1.2 | 1.4 | 0.06 | 16.28 | 5.9 | –
10 | C[C@H]1[C@H](N2CCN(C(=O)Nc3ccc(C(C)(C)C)cc3)CC2)O[C@@H]2O[C@@]3(C)CC[C@H]4[C@H](C)CC[C@@H]1[C@@]24OO3 [Compound 22] | – | – | – | – | – | – | – | – | – | 0.6 | 0.8 | 0.39 | – | 11.7 | –
11 | C[C@H]1[C@H](N2CCN(C(=O)Nc3ccc(C(F)(F)F)cc3)CC2)O[C@@H]2O[C@@]3(C)CC[C@H]4[C@H](C)CC[C@@H]1[C@@]24OO3 [Compound 23] | – | – | – | – | – | – | – | – | – | 0.7 | 0.9 | 0.05 | 19.48 | 6.7 | –
12 | C[C@H]1[C@H](N2CCN(C(=O)Nc3ccc(F)cc3)CC2)O[C@@H]2O[C@@]3(C)CC[C@H]4[C@H](C)CC[C@@H]1[C@@]24OO3 [Compound 24] | – | – | – | – | – | – | – | – | – | 0.65 | 0.9 | 0.47 | – | 7.6 | –
13 | C[C@H]1[C@H](NS(=O)(=O)N2CCN(c3ccccn3)CC2)O[C@@H]2O[C@@]3(C)CC[C@H]4[C@H](C)CC[C@@H]1[C@@]24OO3 [Compound 29] | – | – | – | – | – | – | – | – | – | 1.1 | 0.8 | 0.00 | 578.76 | 3.8 | –
14 | C[C@H]1[C@H](NS(=O)(=O)N2CCN(c3ccc(C(F)(F)F)cn3)CC2)O[C@@H]2O[C@@]3(C)CC[C@H]4[C@H](C)CC[C@@H]1[C@@]24OO3 [Compound 30] | – | – | – | – | – | – | – | – | – | 1.3 | 0.9 | 0.21 | 4.77 | 5.4 | –
15 | C[C@H]1[C@@H](O)O[C@@H]2O[C@@]3(C)CC[C@H]4[C@H](C)CC[C@@H]1[C@@]24OO3 [DHA 2, dihydroartemisinin] | 10,039 | – | 1.5 | 1.4 | 0.6 | 0.7 | 0.78 | 1.3 | 7.1 | – | – | – | – | – | –
16 | CC1CCC2C(C)C(N3CCNCC3)OC3OC4(C)CCC1C32OO4 (stereo not shown) [DHA-piperazine 9] | – | – | – | – | 0.61 | 0.45 | – | – | 0.5 | – | – | – | – | – | –
17 | CN(C)c1ccc2nc3ccc(=[N+](C)C)cc-3sc2c1 [MB, methylene blue] | – | – | – | – | – | – | – | – | 43.3 | – | – | – | – | – | –
18 | CC1CCC2C(C)C(N3CCN(C(=O)Nc4ccccc4)CC3)OC3OC4(C)CCC1C32OO4 (stereo not shown) [Phenylurea 10] | 1,846 | – | 1.6 | 39.3 | 0.61 | 0.36 | 0.02 | 48.8 | 5.8 | – | – | – | – | – | > 20 fold
19 | CC1CCC2C(C)C(NS(N)(=O)=O)OC3OC4(C)CCC1C32OO4 (stereo not shown) [Sulfamide 11] | 51,376 | – | 1.0 | 0.4 | 0.56 | 0.64 | 28.0 | 0.04 | 1.55 | – | – | – | – | – | –
